For eight molecules, binding results are on record in paper PMC10128955.

These are yes or no findings as the source states them, for the method shown. Binding calls can cover weak binding; strength is not graded here. For some assays here: In cells and extracts the contact can be indirect. For some assays here: Tags and fused reporters may be left off the sequences shown.

For experiment [1], the target named is T1, truncated LAX1 (31-99 aa) containing the bHLH domain (41-89 aa), pGBK-LAX1(31-99) (Oryza sativa Japonica variety Zhonghua 11 (ZH11)) (UniProt Q7XAQ6).
T1 sequence: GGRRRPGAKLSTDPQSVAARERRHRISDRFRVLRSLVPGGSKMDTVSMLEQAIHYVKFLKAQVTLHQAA
As to the kind of experiment: two-hybrid; Matchmaker Gold system, AH109; LAX1 fragments in pGBK-T7 as bait, bHLH proteins in pGAD-T7 as prey; growth of dilutions on selective medium.

Experiment [2] concerns the target T2, truncated LAX1 fragment (1-159 aa), pGBK-LAX1(1-159) (Oryza sativa Japonica variety Zhonghua 11 (ZH11)) (UniProt Q7XAQ6).
T2 sequence: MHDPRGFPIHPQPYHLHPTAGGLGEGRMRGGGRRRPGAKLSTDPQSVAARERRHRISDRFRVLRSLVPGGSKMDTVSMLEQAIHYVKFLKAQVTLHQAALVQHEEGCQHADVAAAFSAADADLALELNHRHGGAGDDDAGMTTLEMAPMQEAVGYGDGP
The description is as above.

Experiment [3] deals with T3, cCFP-LAX1 (Oryza sativa Japonica variety Zhonghua 11 (ZH11)) (UniProt Q7XAQ6).
T3 sequence: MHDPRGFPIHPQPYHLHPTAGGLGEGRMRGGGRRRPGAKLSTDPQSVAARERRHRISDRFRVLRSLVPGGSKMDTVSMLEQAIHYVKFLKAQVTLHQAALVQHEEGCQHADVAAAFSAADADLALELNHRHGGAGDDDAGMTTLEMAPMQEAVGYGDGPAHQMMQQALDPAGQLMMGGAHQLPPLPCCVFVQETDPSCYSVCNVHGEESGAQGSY
As to the kind of experiment: split reporter; BiFC in rice protoplasts; cCFP-LAX1 with nCFP fusions; incubation overnight at 23°C; CFP fluorescence in nuclei.

Experiment [4] addresses His-OsbHLH068 (Oryza sativa Japonica variety Zhonghua 11 (ZH11)). As to the kind of experiment: pull-down; bacterial lysates of MBP-LAX1 and His-OsbHLH067 or His-OsbHLH068 mixed; Ni Sepharose, 4°C, 60 min; washed with TGH buffer (150 mM NaCl, 1% Triton X-100); immunoblot with anti-MBP. On the technique in general: In western blotting, separated proteins are transferred to a membrane and probed.

In experiment [5] the target is His-OsbHLH067 (Oryza sativa Japonica variety Zhonghua 11 (ZH11)). Described as above.
Experiment [6] has as its target GST-OsbHLH069 (Oryza sativa Japonica variety Zhonghua 11 (ZH11)). As to the kind of experiment: pull-down; bacterial lysates of MBP-LAX1 and GST-OsbHLH069 mixed; glutathione sepharose, 4°C, 60 min; washed with TGH buffer (150 mM NaCl, 1% Triton X-100); immunoblot with anti-MBP.

For the molecule OsbHLH067 (prey in pGAD-T7), the binding result in experiment [1] and in experiment [2] was “binds” throughout. For the molecule OsbHLH067-nCFP, in experiment [3], the binding result is “binds”.

As for OsbHLH068 (prey in pGAD-T7), the binding entry in experiment [1] and in experiment [2] was “binds” throughout.

For OsbHLH068-nCFP, in experiment [3], the binding result is “binds”. Consider OsbHLH069 (prey in pGAD-T7), for which the binding entry in experiment [1] and in experiment [2] was “binds” each time. Take OsbHLH069-nCFP: in experiment [3], the binding result was “binds”. Turning to pGAD-OsbHLH003, the binding entry in experiment [1] and in experiment [2] was “no binding” in each case.

B1: MBP-LAX1 (protein, UniProt Q7XAQ6 1-215)
chain: MHDPRGFPIHPQPYHLHPTAGGLGEGRMRGGGRRRPGAKLSTDPQSVAARERRHRISDRFRVLRSLVPGGSKMDTVSMLEQAIHYVKFLKAQVTLHQAALVQHEEGCQHADVAAAFSAADADLALELNHRHGGAGDDDAGMTTLEMAPMQEAVGYGDGPAHQMMQQALDPAGQLMMGGAHQLPPLPCCVFVQETDPSCYSVCNVHGEESGAQGSY
In the case of B1, the binding result in experiment [4], in experiment [5] and in experiment [6] was “binds” throughout.
